Percent effect of library compounds

Values are the deposited “Percent Effect”, in %.
The record does not define 0% and 100%; most values in the screen are far below 50% and negative numbers occur (in some assays of this library far below -100).
Compounds were drawn at random from those tested, without regard to their results.
Two or more numbers in one place are separate tests of the same structure; such repeats can differ widely.

A: 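Phenotypic screen: M. tuberculosis growth, glucose 7H9 medium, 3 days; the read-out is not stated. Tested at 50 µM. Direction is inferred from retests: higher values go with more growth inhibition. Size under these conditions: about 69,000 compounds, about 760 of them at 50% or above in at least one test.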
B: 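Phenotypic screen: M. tuberculosis growth, cholesterol and DPPC medium, 4 days; the read-out is not stated. Tested at 50 µM. Higher reads as more growth inhibition (inferred: compounds with an IC50 in retests scored well above the rest). Of about 69,000 compounds tested this way, about 370 (0.54%) reached 50% or more in at least one test.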

Compound: COc1c(C(=O)N2CCOC(c3cccs3)C2)c(C)nn1C (stereo not shown)
A: 22.64%
B: 14.01%

Compound: O=C1N(CCCc2ccccc2)CCCC1(O)CN1CCC(CO)CC1 (stereo not shown)
A: 15.74% and 18.61%
B: -9.173%

Compound: O=C(CCCOc1ccc(F)cc1F)N1CCCC(n2cccn2)C1 (stereo not shown)
A: -13.84%
B: -11.65%

Compound: CN(C)Cc1ccc(C(N)=O)cc1NC(=O)c1cccc(C#N)c1
A: 20.95%
B: 20.35%

Compound: COCCN1CCc2ncnc(NC(C)C)c2CC1.O=C(O)C(F)(F)F
A: -12.57%
B: -5.511%

Compound: O=C(C1CCCCC1)N1CCN(Cc2nc(-c3ccco3)no2)CC1
A: 7.864%
B: 8.512%

Compound: CN(CCc1ccncc1)C(=O)c1sccc1OC(F)F
A: 5.082%
B: 3.022%

Compound: O=C(c1ccoc1)N1CCC2(CC1)C(=O)N(CC1CC1)c1ccccc12
A: -6.134%
B: 3.484%

Compound: CC(Cc1ccco1)NS(=O)(=O)N1CCCCCC1 (stereo not shown)
A: 25.43% and 35.51%
B: 30.55%

Compound: Cc1cc(C(=O)NCc2ccc(F)cc2)nc(C2CCCN2C)n1 (stereo not shown)
A: -43.43%
B: -7.105%

Compound: COc1ccc(-n2ncc3c2NC(=O)CSC3CC(C)C)cc1 (stereo not shown)
A: 35.09%
B: 18.3%

Compound: O=C(O)C(F)(F)F.[H][C@@]12CN(C(=O)c3cccnc3)C[C@]1([H])C(=O)N(Cc1cccc(F)c1)C2
A: 7.058%
B: 6.263%

Compound: CCc1cnc(NCc2nc(COC)no2)nc1
A: 19.99% and 3.378%
B: -0.3577%

Compound: O=C(CC1CCCO1)NCc1ccccc1Cn1cncn1 (stereo not shown)
A: -15.11%
B: -17.7%

Compound: CCC(CO)N(C/C(C)=C/c1ccco1)Cc1ccco1 (stereo not shown)
A: -13.01%
B: 26.23%

Compound: O=C(O)C(F)(F)F.O=C(O)C(F)(F)F.[H][C@@]12C[C@@H](Oc3cncnc3)CN1CCN(Cc1ccccn1)C2
A: -21.35%
B: 1.506%

Compound: Cn1cnc(-c2cc(C(=O)N3CCOCC3)c3ccccn23)c1
A: 1.088%
B: -15.96%

Compound: Cc1cccc(-c2c[nH]c(C3CCCN3C(=O)c3cc(C)n[nH]3)n2)c1 (stereo not shown)
A: 1.778% and 10.52%
B: 2.312%

Compound: COc1ccc(OC2CCN(Cc3ccn(C)c(=O)c3)CC2)cc1
A: 24.17%
B: -0.7885%

Compound: Cc1cnn(CC2CN(CC(=O)NCCc3cccs3)CCO2)c1 (stereo not shown)
A: -0.1185%
B: 5.504%

Compound: O=C(NCc1nnc2ccccn12)N1CCc2sccc2C1
A: -5.899%
B: 0.3108%

Compound: COc1ccc(C(=O)NS(=O)(=O)c2cncc(Br)c2)cc1
A: -18.46% and 1.826%
B: -0.2335%

Compound: COc1ccccc1C(=O)Nc1c(C)cnn1CC1CC1
A: -33.45%
B: 12.5% and -7.992%

Compound: CC(C)Oc1cccc(CNC(=O)NC(C)(C(=O)O)c2ccco2)c1 (stereo not shown)
A: 18.26%
B: 6.622%

Compound: O=C(O)C(F)(F)F.[H][C@@]12CCN(C(=O)NC)CC[C@]1(C(=O)N1CCOCC1)CCN2CC
A: -12.6%
B: -7.582%

Compound: O=C(CCn1cncn1)N1CCCC1c1noc(C2CC2)n1 (stereo not shown)
A: 11.92%
B: 7.483%

Compound: Cc1cccc(CN2CCCC(O)(CNCc3cccc(F)c3)C2=O)c1 (stereo not shown)
A: 3.452%
B: 0.03852%

Compound: COc1ccccc1CN1CCCC(Cc2nccnc2N)C1 (stereo not shown)
A: -1.268%
B: -14.84%

Compound: COc1ccc(C)cc1NC(=O)C1CSc2ncc(C)c(=O)n2C1 (stereo not shown)
A: -1.404%
B: -5.616%

Compound: CC(C)(C)C(=O)c1ccsc1NC(=O)CCNC(=O)c1ccco1
A: -2.904%
B: 5.966%

Compound: CN(C(=O)c1ccc(OCC(F)F)nc1)c1ccc2c(c1)CCO2
A: 32.37%
B: 16.79%

Repeated from the top, 2 entries:

* COc1c(C(=O)N2CCOC(c3cccs3)C2)c(C)nn1C (stereo not shown) | A: 22.64%; B: 14.01%
* O=C1N(CCCc2ccccc2)CCCC1(O)CN1CCC(CO)CC1 (stereo not shown) | A: 15.74% and 18.61%; B: -9.173%

Source: ChEMBL document CHEMBL3988442, “University of Dundee, Small-Polar-MMV Screening Library” (2021).